Measurements taken from patent US20260265386A1 (Chugai, published 2026).
These are yes or no findings as the source states them, for the method shown. Some binding calls cover weakened binding; strength is not graded here.

Protein sequences, listed by entry. Tags and fused reporters are not part of them. Residues count along the entry.
UniProt Q15116, residues 25-288: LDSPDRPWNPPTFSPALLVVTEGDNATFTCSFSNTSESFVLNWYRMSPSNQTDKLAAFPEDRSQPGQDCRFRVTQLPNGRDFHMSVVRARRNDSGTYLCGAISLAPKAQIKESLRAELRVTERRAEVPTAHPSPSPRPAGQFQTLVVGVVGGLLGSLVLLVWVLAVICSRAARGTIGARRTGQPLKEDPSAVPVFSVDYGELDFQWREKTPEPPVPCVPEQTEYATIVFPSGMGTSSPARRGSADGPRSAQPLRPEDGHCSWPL

What was measured:
[1] = target: human PD1 on NFAT-luc2/PD1 Jurkat Cell line (Promega, #CS187102) (human) (UniProt Q15116); experiment: flow cytometry, antibody 10 micro g/mL on NFAT-luc2/PD1 Jurkat cells, anti-human IgG-PE detection
[2] = target: human PD1 on NFAT-luc2/PD1 Jurkat Cell line (Promega, #CS187102) (human) (UniProt Q15116); experiment: flow cytometry on NFAT-luc2/PD1 Jurkat cells, Ab 10 micro g/mL, detected with Goat F(ab')2 anti-Human IgG-PE

Row | binding [1] | binding [2] | Binder
1 | binds | binds | PDA0041 (antibody, human IgG1, kappa, V domains shown) VH: QEQLEESGGDLVKPGASLTLTCTASGFSFNSYWMSWVRQAPGKGLEWIADIGAGGSGSTFYASWAKGRFTISKTSSTTVTLQMTSLTAADTATYFCARYVDGGHSDLWGPGTLVTVSS VL: AFELTQTPSSVEAAVGGTVSINCQASEDIERYLAWYQQRPGQPPKLLIYTASSLPSGVPSRFKGSGSGTQFTLTISDLEAADAATYYCQQGWSDANVDNTFGGGTEVVVKR
2 | binds | binds | PDA0070 (antibody, human IgG1, kappa, V domains shown) VH: QEQLEESGGDLVKPGASLTLTCTASGFSFNSYWMSWVRQAPGKGLEWIADIGAGGSGSTFYASWAKGRFTISKTSSTTVTLQMTSLTAADTATYFCARYVDGGHSDLWGPGTLVTVSS VL: AFELTQTPSSVEAAVGGTVSINCQASEDIERYLAWYQQRPGQPPKLLIYTASSLPSGVPSRFKGSGSGTQFTLTISDLEAADAATYYCQQGWSDANVDNTFGGGTEVVVKR
